Earlier results on 1 compound are cited in patent publication US20010029264A1, “Novel methods and compositions for delivery of taxanes” (priority 1998, published 2001).

For this series the following is noted: aqueous solution; cited from earlier work.

Consider `CC(=O)O[C@H]1C(=O)[C@@]2(C)[C@H]([C@H](OC(=O)c3ccccc3)[C@]3(O)C[C@H](OC(=O)[C@H](O)[C@@H](NC(=O)c4ccccc4)c4ccccc4)C(C)=C1C3(C)C)[C@]1(OC(C)=O)CO[C@@H]1C[C@@H]2O` [paclitaxel], for which the water solubility result is listed as “water insoluble”.
